From patent CN114516919A come the findings set out here.

Sequences of proteins named here, by UniProt entry; tags and fusion partners are left off. Residues count along the entry.
UniProt Q13018, residues 21-1463: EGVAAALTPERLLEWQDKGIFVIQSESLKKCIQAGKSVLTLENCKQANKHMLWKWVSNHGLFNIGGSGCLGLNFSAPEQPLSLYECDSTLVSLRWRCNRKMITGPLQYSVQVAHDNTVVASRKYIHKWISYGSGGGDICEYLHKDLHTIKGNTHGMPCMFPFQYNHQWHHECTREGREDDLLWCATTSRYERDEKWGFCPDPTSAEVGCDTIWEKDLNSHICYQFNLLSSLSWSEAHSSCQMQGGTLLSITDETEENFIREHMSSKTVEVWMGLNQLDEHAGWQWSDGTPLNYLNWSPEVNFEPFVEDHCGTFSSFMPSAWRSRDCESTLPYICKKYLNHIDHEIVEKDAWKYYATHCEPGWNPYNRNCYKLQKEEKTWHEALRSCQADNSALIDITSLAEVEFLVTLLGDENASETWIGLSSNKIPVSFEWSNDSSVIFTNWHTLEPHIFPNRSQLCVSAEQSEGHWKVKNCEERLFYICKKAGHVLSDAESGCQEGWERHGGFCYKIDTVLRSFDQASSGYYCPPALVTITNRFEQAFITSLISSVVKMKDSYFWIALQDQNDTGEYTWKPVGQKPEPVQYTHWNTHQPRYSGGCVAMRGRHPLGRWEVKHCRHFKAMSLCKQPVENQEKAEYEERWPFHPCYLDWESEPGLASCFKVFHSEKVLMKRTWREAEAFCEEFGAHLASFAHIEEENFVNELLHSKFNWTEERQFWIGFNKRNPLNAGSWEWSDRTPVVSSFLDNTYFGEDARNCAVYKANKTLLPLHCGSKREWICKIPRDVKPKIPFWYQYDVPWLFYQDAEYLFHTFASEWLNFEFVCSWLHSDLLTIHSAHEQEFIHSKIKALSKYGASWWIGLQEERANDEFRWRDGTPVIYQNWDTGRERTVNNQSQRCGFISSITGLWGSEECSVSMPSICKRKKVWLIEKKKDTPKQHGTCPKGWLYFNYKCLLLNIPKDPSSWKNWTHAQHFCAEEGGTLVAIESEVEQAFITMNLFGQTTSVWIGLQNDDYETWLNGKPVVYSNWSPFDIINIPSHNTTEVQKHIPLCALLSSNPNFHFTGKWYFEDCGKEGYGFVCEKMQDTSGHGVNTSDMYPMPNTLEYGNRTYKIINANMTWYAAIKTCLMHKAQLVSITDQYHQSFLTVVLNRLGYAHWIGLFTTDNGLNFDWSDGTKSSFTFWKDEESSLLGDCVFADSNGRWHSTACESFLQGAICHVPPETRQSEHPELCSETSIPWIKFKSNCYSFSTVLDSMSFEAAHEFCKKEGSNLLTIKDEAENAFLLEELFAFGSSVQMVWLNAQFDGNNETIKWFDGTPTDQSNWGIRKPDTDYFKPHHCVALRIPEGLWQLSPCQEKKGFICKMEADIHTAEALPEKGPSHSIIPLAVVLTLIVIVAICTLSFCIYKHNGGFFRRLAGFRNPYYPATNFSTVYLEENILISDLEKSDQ

Results are given in words; binding and its absence hold for the method and conditions named. Some results given as binding are weak or reduced against the parent protein; the word gives no strength.

The target of this assay is 表达PLA2R蛋白细胞上的PLA2R蛋白 (UniProt Q13018). The assay can be described thus: flow cytometry on PLA2R-expressing cells, 0.5 μg antibody, Alexa Fluor 488 goat anti-rabbit secondary.

B1: 54D11抗PLA2R重组兔单克隆抗体 (antibody, V domains shown)
VH: QSVEESGGRLVTPGTPLTLTCTVSGIDLSSHGMGWVRQAPGKGLEWIGYINTGGSAYYASWAKGRFTISRTSTTVDLKMTSLTTEDTATYFCARGDPDYTSGFPIWGPGTLVTVSS
VL: AFEMTQTPASVEVAVGGTVTIKCQASESISSWLAWYQQKPGQPPKLLIYRASTLASGVPSRFSGSGSGTQFTLTISGVECADAATYYCQQGYSSHNIDNIFGGGTEVVVR
On to B1, for which the binding entry is on record as “binds”.
